This assay concerns P388 leukemia ip, CD2F1 mice, survival T/C. Nature of the assay: NCI In Vivo Anticancer Drug Screen. Data for tumor model P388 Leukemia (intraperitoneal) in CD2F1 (CDF1) mice. To be noted: T/C endpoint: median survival time, higher T/C = longer survival.
Where [1] appears, read: dose: 50.0 mg/kg/injection, schedule: Q01DX005 (ip), vehicle: saline + alcohol.
Setting [2] is: dose: 50.0 mg/kg/injection, schedule: Q04DX003 (ip), vehicle: saline.

The list shows only some results of the screen, not a fair sample: it gathers tests that were run many times, whatever their T/C, doses with no T/C, and many T/C values between a quarter and a half above the control. Further doses and runs are listed elsewhere. T/C gives the treated animals as a percentage of the vehicle group. Some doses have a count of surviving animals in place of a T/C: the source files T/C as zero there, which appears to mark a toxic dose or a test without result, not a measured value. Some doses without a T/C left all or most animals alive at the check, yet need not have been tolerated: survival well below the control is almost never listed, so the zero probably covers shortened survival too. Survivors were counted at the toxicity check, usually on the fifth day, unless a day is given; later deaths do not show. Schedule codes are those of the source, read here as Q, the interval in days (D) or hours (H), X, the number of doses. Some entries were tested several times; their values stand side by side, smallest first. For survival time, this PubChem deposit counts one and a half times the control or more as active, and values a quarter to a half above the control carry no call in these data; other NCI protocols may use other cut-offs. Some T/C values carry the count of animals alive at the toxicity check (mostly the fifth day); without a count, all were alive then.

With `C=C1C(=O)O[C@H]2C1[C@H](OC(=O)/C(C)=C\C)CC(=C)[C@@H]1C(=O)[C@H]3O[C@@]3(C)[C@@]12O` (stereo not given in full), the T/C under setting [1] was 125 % of control. The survivor count under setting [1] was 0 of 6; the survivor count (dose: 100.0 mg/kg/injection, schedule: Q01DX005 (ip), vehicle: saline + alcohol) was 0 of 6 and 1 of 6.
Turning to `O=c1[nH]c2cc(Cl)ccc2c(CCl)c1Cl`, where the note is “dose: 100.0 mg/kg/injection, schedule: Q01DX009 (ip), vehicle: saline with Tween-80”, the T/C was 125 % of control.
Consider `CCOC(=O)c1nc(Cl)nc(Cl)c1I`, for which the survivor count is, setting by setting: (dose: 50.0 mg/kg/injection, schedule: Q01DX009 (ip), vehicle: distilled water + Tween-80) 4 of 6; (dose: 100.0 mg/kg/injection, schedule: Q01DX009 (ip), vehicle: distilled water + Tween-80) 5 of 6; (dose: 200.0 mg/kg/injection, schedule: Q01DX009 (ip), vehicle: distilled water + Tween-80) 0 of 6.
On to `Nc1nc2ccc(CNc3ccc(C(=O)NC(CC(=O)O)C(=O)O)cc3)cc2c(=O)[nH]1` (stereo not given), for which the T/C was 128 % of control [5 of 6 alive] (dose: 100.0 mg/kg/injection, schedule: Q01DX009 (ip), vehicle: Klucel (hydroxypropylcellulose) (HPC)) and 139 % of control (dose: 200.0 mg/kg/injection, schedule: Q01DX009 (ip), vehicle: Klucel (hydroxypropylcellulose) (HPC)).
With `CCCCNCCCNCCCNC(=O)c1csc(-c2csc(CCNC(=O)C(NC(=O)C(C)C(O)C(C)NC(=O)C(NC(=O)c3nc(C(CC(N)=O)NCC(N)C(N)=O)nc(N)c3C)C(OC3OC(CO)C(O)C(O)C3OC3OC(CO)C(O)C(OC(N)=O)C3O)c3cnc[nH]3)C(C)O)n2)n1` (stereo not given), the T/C (dose: 1.25 mg/kg/injection, schedule: Q01DX009 (ip), vehicle: water) was 132 % of control; the T/C (dose: 10.0 mg/kg/injection, schedule: Q01DX009 (ip), vehicle: water) is 126 and 132 % of control.
Turning to `CC[C@](O)(C(=O)O)c1cc2n(c(=O)c1CO)Cc1cc3ccccc3nc1-2`, the T/C reads like this: (dose: 1.0 mg/kg/injection, schedule: Q01DX009 (ip), vehicle: saline with Tween-80) 127 % of control; (dose: 1.0 mg/kg/injection, schedule: Q01DX009 (ip), vehicle: water) 137 % of control; (dose: 2.0 mg/kg/injection, schedule: Q04DX003 (ip), vehicle: saline) 125 % of control; (dose: 2.5 mg/kg/injection, schedule: Q04DX003 (ip), vehicle: water) 126 % of control; (dose: 3.13 mg/kg/injection, schedule: Q04DX003 (ip), vehicle: other) 126 and 136 % of control; (dose: 4.0 mg/kg/injection, schedule: Q04DX003 (ip), vehicle: saline, evaluated on day 5) 100 and 104 % of control. Further, the T/C reads like this: (dose: 4.0 mg/kg/injection, schedule: Q04DX003 (ip), vehicle: saline, evaluated on day 30) 100 and 104 % of control; (dose: 4.0 mg/kg/injection, schedule: Q04DX003 (ip), vehicle: saline, evaluated on day 35) 124 % of control; (dose: 5.0 mg/kg/injection, schedule: Q04DX003 (ip), vehicle: water) 140 % of control; (dose: 6.48 mg/kg/injection, schedule: Q04DX003 (ip), vehicle: saline) 119, 127, 135, 154 % of control; (dose: 7.78 mg/kg/injection, schedule: Q04DX003 (ip), vehicle: saline) 146 % of control; (dose: 8.0 mg/kg/injection, schedule: Q04DX003 (ip), vehicle: saline, evaluated on day 5) 94, 108, 128 % of control. For the same molecule, the T/C (dose: 8.0 mg/kg/injection, schedule: Q04DX003 (ip), vehicle: saline, evaluated on day 30) was 94 and 108 % of control; the T/C (dose: 8.0 mg/kg/injection, schedule: Q04DX003 (ip), vehicle: saline, evaluated on day 35) was 150 % of control; the T/C (dose: 8.0 mg/kg/injection, schedule: Q04DX003 (ip), vehicle: saline, evaluated on day 60) was 128 % of control; the T/C (dose: 9.72 mg/kg/injection, schedule: Q04DX002 (ip), vehicle: saline) was 138 % of control; the T/C (dose: 10.0 mg/kg/injection, schedule: Q04DX003 (ip), vehicle: water) is 141 % of control; the T/C (dose: 10.8 mg/kg/injection, schedule: Q04DX003 (ip), vehicle: saline) is 136, 150, 152, 157 % of control. Also, the T/C was 144 % of control (dose: 12.5 mg/kg/injection, schedule: Q04DX003 (ip), vehicle: water); 81, 147, 159 % of control (dose: 16.0 mg/kg/injection, schedule: Q04DX003 (ip), vehicle: saline, evaluated on day 5); 147 % of control (dose: 16.0 mg/kg/injection, schedule: Q04DX003 (ip), vehicle: saline, evaluated on day 30); 187 % of control (dose: 16.0 mg/kg/injection, schedule: Q04DX003 (ip), vehicle: saline, evaluated on day 35); 159 % of control (dose: 16.0 mg/kg/injection, schedule: Q04DX003 (ip), vehicle: saline, evaluated on day 60); 162, 179, 185, 192 % of control (dose: 18.0 mg/kg/injection, schedule: Q04DX003 (ip), vehicle: saline). The T/C was 105 [7 of 8 alive], 195, 207, 212 % of control (dose: 30.0 mg/kg/injection, schedule: Q04DX003 (ip), vehicle: saline); 77, 207, 213 % of control (dose: 32.0 mg/kg/injection, schedule: Q04DX003 (ip), vehicle: saline, evaluated on day 5); 207 % of control (dose: 32.0 mg/kg/injection, schedule: Q04DX003 (ip), vehicle: saline, evaluated on day 30); 99 % of control [5 of 6 alive] (dose: 32.0 mg/kg/injection, schedule: Q04DX003 (ip), vehicle: saline, evaluated on day 35); 213 % of control (dose: 32.0 mg/kg/injection, schedule: Q04DX003 (ip), vehicle: saline, evaluated on day 60); 95, 136, 163 % of control under setting [2]. For the same molecule, the T/C was 41, 103, 208 % of control (dose: 64.0 mg/kg/injection, schedule: Q04DX003 (ip), vehicle: saline, evaluated on day 5); 103 % of control [9 of 10 alive] (dose: 64.0 mg/kg/injection, schedule: Q04DX003 (ip), vehicle: saline, evaluated on day 30); 208 % of control [9 of 10 alive] (dose: 64.0 mg/kg/injection, schedule: Q04DX003 (ip), vehicle: saline, evaluated on day 60). The survivor count is, setting by setting: (dose: 8.0 mg/kg/injection, schedule: Q01DX009 (ip), vehicle: saline sonified) 6 of 6; (dose: 16.0 mg/kg/injection, schedule: Q01DX009 (ip), vehicle: saline sonified) 4 of 6; (dose: 16.0 mg/kg/injection, schedule: Q04DX003 (ip), vehicle: saline) 10 of 10; (dose: 32.0 mg/kg/injection, schedule: Q04DX003 (ip), vehicle: saline) 10 of 10; (dose: 50.0 mg/kg/injection, schedule: Q04DX003 (ip), vehicle: other) 3 of 6 and 6 of 6; under setting [2], 6 of 8. For the same molecule, the survivor count was 2 of 6 (dose: 50.0 mg/kg/injection, schedule: Q04DX003 (ip), vehicle: water); 2 of 6 and 4 of 10 (dose: 64.0 mg/kg/injection, schedule: Q04DX003 (ip), vehicle: saline); 9 of 10 (dose: 128.0 mg/kg/injection, schedule: Q04DX003 (ip), vehicle: saline).
Consider `COc1cc2c(c(OC)c1OC)-c1ccc(SCc3ccccc3)c(=O)cc1[C@@H](NC(C)=O)CC2`, for which the T/C (dose: 3.12 mg/kg/injection, schedule: Q01DX009 (ip), vehicle: Klucel (hydroxypropylcellulose) (HPC)) was 145 % of control; the T/C (dose: 6.25 mg/kg/injection, schedule: Q01DX009 (ip), vehicle: Klucel (hydroxypropylcellulose) (HPC)) is 148 % of control; the T/C (dose: 12.5 mg/kg/injection, schedule: Q01DX009 (ip), vehicle: Klucel (hydroxypropylcellulose) (HPC)) is 125 % of control; the T/C (dose: 12.5 mg/kg/injection, schedule: Q01DX009 (ip), vehicle: saline with Tween-80) was 130 % of control. In addition, the survivor count (dose: 25.0 mg/kg/injection, schedule: Q01DX009 (ip), vehicle: Klucel (hydroxypropylcellulose) (HPC)) was 2 of 6 and 3 of 6; the survivor count (dose: 25.0 mg/kg/injection, schedule: Q01DX009 (ip), vehicle: saline with Tween-80) is 4 of 6; the survivor count (dose: 50.0 mg/kg/injection, schedule: Q01DX009 (ip), vehicle: Klucel (hydroxypropylcellulose) (HPC)) is reported as 0 of 6.

These data come from PubChem BioAssay AID330 (DTP/NCI, 2004).
